Test results published in the supplement of paper PMC5949888.
Most values lie at the floor of the assay. Slopes are relative: functional sequences can read slightly below zero.

Tested on: Saccharomyces cerevisiae PS128 hsf1 delta, HSF1(1-493) fusion
Assay: growth estimate (transactivation domain function in HSF1 fusion, heat-shock survival) (a.u. (slope of normalised read count over time)); higher = stronger growth at 37°C, i.e. more transactivation activity
Conditions: library: random library
Protocol: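 Random 60-nt DNA library encoding peptides of up to 20 aa, fused to the C-terminus of yeast HSF1 residues 1-493 (C-terminal TAD deleted) and expressed from the native HSF1 promoter on a CEN plasmid in hsf1-deleted S. cerevisiae PS128. Cells were selected at 37°C on -trp 5-FOA plates for 0, 2, 4, 6 and 8 days and amplicons were sequenced. Growth estimate is the slope of a robust linear fit of total-sum-normalised read counts (normalised to the first time point) over time, using at least 2 replicates. Sequences are classed functional (TAD activity) above a threshold of -0.13, set from stop-codon control sequences.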

Substance | growth estimate
YPRRHAVLPTGSVFQSWDVW | < -0.25
EMVARAGYVYPPGFREAIKG | < -0.25
LRPVSGPGHSNSRPKQLKPC | < -0.25
LSDRSTHHGHDASST | < -0.25
TVENKPSAGFSVLMT | < -0.25
ASVILPFGTKRIRQPRCRGT | < -0.25
WTIHAIQRVWINYEGRICQG | < -0.25
CATPPNGYARGTGHTIVHLS | < -0.25
PQI | < -0.25
DPREESKYGTIGPSLWASSS | < -0.25
YASRGHVLLSLVLLKNRAIV | < -0.25
HIEGGLGILAGAIYPSGGPP | < -0.25
AHGSLPPAFSTGNFRCHGRI | < -0.25
QSRAALARHLSGPASSSTLL | < -0.25
DLIAGRCFFLHNVACKIGNI | -0.246
PFHKFGYI | < -0.25
LVPLRH | < -0.25
YASPHPSCTLFTLVPMVESA | < -0.25
PANRQRSCRCGSRPSLLGAG | < -0.25
SGSHTYCFRVSLQ | < -0.25
YCD | < -0.25
CGASGKTWNSMLRVCNPPLA | < -0.25
SVCDQLSNLTDTRLAVHCSA | < -0.25
SEHLTFPEGILGAPRASNYF | < -0.25

Some of the entries so far, with tabs.
Substance	growth estimate
PQI	< -0.25
DPREESKYGTIGPSLWASSS	< -0.25
YASRGHVLLSLVLLKNRAIV	< -0.25
HIEGGLGILAGAIYPSGGPP	< -0.25
AHGSLPPAFSTGNFRCHGRI	< -0.25
QSRAALARHLSGPASSSTLL	< -0.25

The list continues.

Substance | growth estimate
WTIRVYMRLIF | < -0.25
VQNSRGGIAVNHMEFRKKAR | < -0.25
VGG | < -0.25
LYSLR | -0.241
GTSAGIVQDTRFALNWVSCQ | < -0.25
TWGVTVYGCRPKLRGTRIMC | < -0.25
ARR | < -0.25
PPGGGWHSG | < -0.25
RVVPWNILDQTSSPTS | < -0.25
LVQEL | -0.241
EWHRLNTGGLLV | < -0.25
PGRAPSFAANHPARIRERTQ | < -0.25
KGYLTALMWGMITPHSIR | < -0.25
DQLG | < -0.25
LCPKYRGHGASPW | < -0.25
RVGSGRPYDL | < -0.25
PPVWRPCLTSICLKVHSYGP | < -0.25
FPGIVSDARYHGV | < -0.25
VLVEH | < -0.25
RSENPRTAYYKLAWCVVYAP | < -0.25
GSTYDRRRRPLLQWICSRLL | < -0.25
DCSGGRYFATANLFRNGPGL | < -0.25
PARGSQLVEWECCRGRSC | < -0.25
AGGLLFAHSLSLRGVLSGTM | < -0.25

Random excerpt: 2 records from the list, in no set order.
Substance | growth estimate
RVVPWNILDQTSSPTS | < -0.25
GTSAGIVQDTRFALNWVSCQ | < -0.25

The list continues.

Substance | growth estimate
ATCRFSTIHDPQCQQFSCLP | < -0.25
GRFGRVARCLTYDVQDVRGG | < -0.25
VGGPLAKNGLLKFEFPQRTN | < -0.25
NRGQGVLVGLCGFHSGVSN | < -0.25
RQYYRSRRYEPILCTNHIIL | < -0.25
NRLLGRRPRCESLSTAPGGK | < -0.25
HMLGLRSFVRAE | < -0.25
VWFPLKWRVGGADRFFMG | < -0.25
SMKSCQT | < -0.25
IWGKFWTV | < -0.25
DGYWSVGDIIIGRNSGPFLN | < -0.25
KADSDRVRLSSREPSNMCDG | < -0.25
RSYSGSWLCTWSMHLGSQPP | < -0.25
ETCRNSRTFG | < -0.25
LGRVIRVLL | < -0.25
ESYTFVICMDRTRKVKCYPS | -0.217
EYGTGRWESLTDLLSSGTKS | < -0.25
PWLIQQELHLRGDDDPITLY | < -0.25
RGFGSRGTRL | < -0.25
RLGLAGTPFAGARQLHSSCH | < -0.25
IQGRTNRVLRHRAEIRHR | < -0.25
LPVTRTSGENE | < -0.25
KKTRHWKIVKMNGFLKPVQS | < -0.25
NNGSRWRI | < -0.25

Substance | growth estimate
CGGMRRKRALCIFGF | < -0.25
WGYCVAPKL | < -0.25
ACPCPGVATQMLFCLTTTRP | < -0.25
IRIEVLQLIHA | < -0.25
PVCLKSWSIGPTLCHGIRLL | < -0.25
GLFNC | < -0.25
PFVVLMSSASPWV | -0.144
EMSVRECHSLVRVMIVQVRI | < -0.25
CGVDKALLKRPVELTRQGGI | < -0.25
SWEDRGERSNTDWVWTTDTM | < -0.25
ASGRRPARL | < -0.25
RQSTDELHLLS | < -0.25
TASWR | < -0.25
VSSQESLQVTIDIIANVCAL | < -0.25
KQLHVVMRAFWSPGHISQAR | < -0.25
SIRRLT | < -0.25
RRNGSWAPSAM | -0.246
AFRWRKVISGVGILARRRWP | < -0.25
THRECCLSATRHES | < -0.25
LIVNF | < -0.25
GGSGSSVKQLLAPLMTFAQP | < -0.25
TLGVTYEPIECYVLVISC | < -0.25
FPLRYCPGIPKSSGPFKGVT | < -0.25
LEKLWGGDRHIKPPGRSYGS | < -0.25

Substance | growth estimate
VRRFYT | < -0.25
GTRSGH | < -0.25
YRRTGHGLGPCGIGCDRL | < -0.25
REPRAANLEHSRSPTRARRS | < -0.25
IFSPYAVSIISGPT | < -0.25
LFI | < -0.25
FECIRWKAIIAFARAWLFPT | < -0.25
TTCSATTCRGECWSRNGTSF | < -0.25
RSCGTGPVCD | < -0.25
LRCRRVRASHSSDRRVMLRS | < -0.25
AQA | -0.246
YRTTRSR | < -0.25
LDAVRRGSFPPV | < -0.25
AMMVSCRRARTHVRNLESPM | < -0.25
FFRQSN | < -0.25
GGDVGFSTRKHKAKRLVGRA | < -0.25
SRS | < -0.25
NYLNMSLR | < -0.25
SRPPVSSFGI | 0.229
WGSGETAPAACHRAKHMSHL | < -0.25
RSNCNSGTRWQR | < -0.25
LSDSQVEGFPHESFSRCPVS | < -0.25
TFRTSLSCGDRDKRGRIISI | < -0.25
ESIAPKVRAYKSTGPAQSRD | < -0.25

Substance | growth estimate
IAYESPEQREKPYYGPRNDK | < -0.25
WGWTMDLL | < -0.25
VYFAGSRFAVFTDASPRLIT | < -0.25
YTVRRDEVTAVTTSFLVRWI | < -0.25
RKVLDRDER | < -0.25
AVRLLSRRHAFCHL | < -0.25
PFRGEGTCVVDVLTYIEPYV | < -0.25
HFCRDSGFDGLSIPHLNLQW | < -0.25
PFPTLADGYQALLRVPIRVV | < -0.25
RGEITGEKASKGTVTFGHTV | < -0.25
ANCVNYMLQGQVRTLLRV | < -0.25
LGVDKRSNHRGNGR | < -0.25
FPLVIKHSLGHHCVHPVQVL | < -0.25
SNLRLHHHLSL | < -0.25
VKSDKRRWAS | < -0.25
SISGLPDRR | < -0.25
FVGPQRPDVLKEQGKPGGK | < -0.25
KIVLLAPKTGEKRGYPGRFS | < -0.25
LDSTRYHNEKLTFTDDNSSS | < -0.25
ENGNLSSDSVIIGPRCDGLT | < -0.25
LGRRAKAHCRANRPRRFGPA | < -0.25
RLYGGLVSYYVVHCLMYGSL | < -0.25
